Source: the supplement of paper PMC3334620
In all, about 33,000 sequences were measured (“E-score (-0.5 to 0.5)”: median about -0.0034, highest 2% from about 0.25 on). This is one part of the list.

These sequences were tested against T1, Yap3 (UniProt P38749) (assay: PBM E-score (8-mer binding enrichment) (E-score (-0.5 to 0.5)); higher = stronger / more preferred TF binding). Conditions: protein concentration: 100 nM; construct: GST-full length.
T1 sequence: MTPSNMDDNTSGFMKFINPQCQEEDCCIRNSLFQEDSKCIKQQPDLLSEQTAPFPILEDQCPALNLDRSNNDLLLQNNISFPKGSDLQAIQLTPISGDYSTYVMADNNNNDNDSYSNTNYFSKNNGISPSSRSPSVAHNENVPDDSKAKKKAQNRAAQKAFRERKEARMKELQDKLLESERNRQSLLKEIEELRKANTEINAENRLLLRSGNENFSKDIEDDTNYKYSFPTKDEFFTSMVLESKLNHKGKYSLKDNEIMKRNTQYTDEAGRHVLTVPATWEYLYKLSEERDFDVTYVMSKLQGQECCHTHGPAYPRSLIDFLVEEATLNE
Description: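 Universal 'all 10-mer' protein binding microarrays (Agilent AMADID 015681) probed with GST-tagged S. cerevisiae TFs (full-length or DBD) made by in vitro transcription/translation (PURExpress), about 100-200 nM. Bound TF was detected with fluorescent anti-GST. Each ungapped 8-mer (which stands for itself and its reverse complement) is scored by the PBM enrichment score (E-score), a modified Wilcoxon-Mann-Whitney statistic from -0.5 to +0.5, computed with the Universal PBM Analysis Suite. Scale: above 0.35 generally sequence-specific binding.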
For ACAGTCGA, the “PBM E-score” value was -0.128. With AGGTAACA the “PBM E-score” value was 0.132. In the case of GAATGAAC, the “PBM E-score” value is reported as 0.0585. With GCAATCCC the “PBM E-score” value was -0.118. AAAAGAAA was tested, and the “PBM E-score” value was 0.189. With GCACTACC the “PBM E-score” value was 0.0322. For AAAGGGCA, the “PBM E-score” value was -0.136. For CAACTTCA, the “PBM E-score” value was 0.0635. TGGGAACA was tested, and the “PBM E-score” value was 0.122. In the case of ATAAGACA, the “PBM E-score” value is reported as 0.151. In the case of CGCGTATC, the “PBM E-score” value is reported as 0.162. In the case of AGGTAATC, the “PBM E-score” value is reported as 0.107. With ATTCCGGG the “PBM E-score” value was -0.0546. For AGTTCTGA, the “PBM E-score” value was 0.0186. With AGCCCACG the “PBM E-score” value was -0.174. In the case of ACAACAGC, the “PBM E-score” value is reported as 0.0808. In the case of CTGCTTAC, the “PBM E-score” value is reported as 0.0803. ACGACTTG was tested, and the “PBM E-score” value was -0.0739. GTGTCTAA was tested, and the “PBM E-score” value was -0.0246. With ACGCAAAG the “PBM E-score” value was -0.138. For AAAGTCCT, the “PBM E-score” value was -0.105. For AGACGAAG, the “PBM E-score” value was -0.105. AAATGCAA was tested, and the “PBM E-score” value was 0.103. In the case of CGACGATA, the “PBM E-score” value is reported as -0.0311. For AACGTGGA, the “PBM E-score” value was 0.0258. AAGGGAGT was tested, and the “PBM E-score” value was -0.201. In the case of CATGAAGA, the “PBM E-score” value is reported as 0.0514. GTCCTATA was tested, and the “PBM E-score” value was -0.0462. For CCACCGAG, the “PBM E-score” value was -0.0958. For GCGCGAGC, the “PBM E-score” value was -0.184. With CTATAGGC the “PBM E-score” value was -0.14. CTTGAAAG was tested, and the “PBM E-score” value was 0.00251. For AGCTCAAG, the “PBM E-score” value was -0.099. In the case of ACACTATG, the “PBM E-score” value is reported as -0.0355. For GGGCAACC, the “PBM E-score” value was -0.0204. ACTTGTAT was tested, and the “PBM E-score” value was 0.171. CCGTCGAA was tested, and the “PBM E-score” value was -0.0215. AAATATTA was tested, and the “PBM E-score” value was 0.349. ACGAGGTA was tested, and the “PBM E-score” value was 0.0608. For ATCAATCC, the “PBM E-score” value was -0.0474. AGCATCAG was tested, and the “PBM E-score” value was 0.0377. With ATAGTCCA the “PBM E-score” value was 0.0381. For CGTTCCCA, the “PBM E-score” value was -0.127. CAACAATG was tested, and the “PBM E-score” value was 0.0789. For CATATTTC, the “PBM E-score” value was 0.0493. CCGATTGC was tested, and the “PBM E-score” value was 0.189. GTGGACAC was tested, and the “PBM E-score” value was -0.0256. With CCCCATAG the “PBM E-score” value was -0.158. CTCACTCC was tested, and the “PBM E-score” value was -0.136. GGGGTGAC was tested, and the “PBM E-score” value was -0.131. For CTGAGTTC, the “PBM E-score” value was 0.052. With CTAAGTCC the “PBM E-score” value was -0.258. With GCACGCGA the “PBM E-score” value was 0.00354. For CCGCAAAC, the “PBM E-score” value was 0.0957. In the case of TACCCAAA, the “PBM E-score” value is reported as 0.0436. With GAATAAGA the “PBM E-score” value was 0.109. CTCAGTAA was tested, and the “PBM E-score” value was -0.0289. In the case of CTGGCCGC, the “PBM E-score” value is reported as -0.114. AATTAAGC was tested, and the “PBM E-score” value was 0.0716. In the case of CCTGAGTA, the “PBM E-score” value is reported as -0.111. For CTTGGTGA, the “PBM E-score” value was -0.0556. AAATGCTG was tested, and the “PBM E-score” value was 0.0677. For AGCGATGG, the “PBM E-score” value was -0.166. With CTGGAATC the “PBM E-score” value was -0.0213. TCATTGAA was tested, and the “PBM E-score” value was 0.0474. With GAGCGGGA the “PBM E-score” value was -0.166. In the case of CATTTCGA, the “PBM E-score” value is reported as 0.178. CACAGGCC was tested, and the “PBM E-score” value was -0.148. With GGGCACAC the “PBM E-score” value was -0.268. With ATAAACTG the “PBM E-score” value was 0.105. CATAGCCC was tested, and the “PBM E-score” value was -0.24. With TAGAATAA the “PBM E-score” value was 0.181. For CCGGAAGG, the “PBM E-score” value was -0.199. With ACGTTGAG the “PBM E-score” value was -0.0204. For AAGCCAAA, the “PBM E-score” value was -0.0335. In the case of AACTATGC, the “PBM E-score” value is reported as 0.0633. CTTTAACC was tested, and the “PBM E-score” value was 0.0375. In the case of AAATTATA, the “PBM E-score” value is reported as 0.249. For CATCTGGC, the “PBM E-score” value was -0.066. AAAAGCGA was tested, and the “PBM E-score” value was 0.2. With GTCCTTGA the “PBM E-score” value was -0.0515. In the case of ATCCCGCA, the “PBM E-score” value is reported as -0.0347. With CCTATGCG the “PBM E-score” value was -0.0477. For AACCGTCG, the “PBM E-score” value was -0.0703. For CATCGTGC, the “PBM E-score” value was -0.0797. In the case of GCATCTTA, the “PBM E-score” value is reported as 0.122.
